Here are results for five sequences from publication PMC3260238.

By UniProt entry, the sequences of proteins in these tests, tags left out. Where a name states a change or a piece, a line headed by the entry shows the natural chain unless it says otherwise.
UniProt P54132: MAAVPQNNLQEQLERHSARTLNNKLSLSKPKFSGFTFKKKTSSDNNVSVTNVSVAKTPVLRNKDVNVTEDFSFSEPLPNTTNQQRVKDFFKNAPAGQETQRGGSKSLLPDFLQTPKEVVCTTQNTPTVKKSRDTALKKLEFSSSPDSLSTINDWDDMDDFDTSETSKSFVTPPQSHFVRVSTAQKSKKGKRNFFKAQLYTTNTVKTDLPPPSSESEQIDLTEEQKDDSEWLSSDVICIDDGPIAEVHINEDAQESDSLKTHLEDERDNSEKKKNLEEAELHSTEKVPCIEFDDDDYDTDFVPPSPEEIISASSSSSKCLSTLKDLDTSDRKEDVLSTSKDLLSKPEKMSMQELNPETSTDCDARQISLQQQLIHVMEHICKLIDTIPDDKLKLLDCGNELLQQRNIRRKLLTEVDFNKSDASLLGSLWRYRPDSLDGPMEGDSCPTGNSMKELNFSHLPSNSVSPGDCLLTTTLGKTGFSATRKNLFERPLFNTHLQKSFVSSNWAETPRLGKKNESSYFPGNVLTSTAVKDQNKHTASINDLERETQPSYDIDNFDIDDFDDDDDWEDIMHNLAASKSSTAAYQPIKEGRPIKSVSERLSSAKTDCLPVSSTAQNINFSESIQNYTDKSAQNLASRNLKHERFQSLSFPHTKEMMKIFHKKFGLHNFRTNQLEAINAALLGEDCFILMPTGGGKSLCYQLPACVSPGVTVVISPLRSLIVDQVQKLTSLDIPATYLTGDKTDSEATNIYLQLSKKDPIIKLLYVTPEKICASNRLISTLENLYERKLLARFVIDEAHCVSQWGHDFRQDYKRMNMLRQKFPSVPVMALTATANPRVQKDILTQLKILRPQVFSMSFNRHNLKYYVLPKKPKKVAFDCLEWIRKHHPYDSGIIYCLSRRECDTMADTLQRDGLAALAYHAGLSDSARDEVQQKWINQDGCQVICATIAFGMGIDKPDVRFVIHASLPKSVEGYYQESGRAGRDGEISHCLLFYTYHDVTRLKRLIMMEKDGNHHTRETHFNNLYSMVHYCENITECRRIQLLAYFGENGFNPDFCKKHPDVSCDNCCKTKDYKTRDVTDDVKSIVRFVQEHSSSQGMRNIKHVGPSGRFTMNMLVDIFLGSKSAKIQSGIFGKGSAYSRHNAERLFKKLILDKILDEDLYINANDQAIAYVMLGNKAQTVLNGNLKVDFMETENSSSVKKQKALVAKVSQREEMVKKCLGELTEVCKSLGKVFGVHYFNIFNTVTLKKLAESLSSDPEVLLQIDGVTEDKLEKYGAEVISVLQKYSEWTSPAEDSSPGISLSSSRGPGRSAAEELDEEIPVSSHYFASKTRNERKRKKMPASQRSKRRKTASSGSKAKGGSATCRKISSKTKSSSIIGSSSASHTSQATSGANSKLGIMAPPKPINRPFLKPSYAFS
UniProt Q14191, whole entry: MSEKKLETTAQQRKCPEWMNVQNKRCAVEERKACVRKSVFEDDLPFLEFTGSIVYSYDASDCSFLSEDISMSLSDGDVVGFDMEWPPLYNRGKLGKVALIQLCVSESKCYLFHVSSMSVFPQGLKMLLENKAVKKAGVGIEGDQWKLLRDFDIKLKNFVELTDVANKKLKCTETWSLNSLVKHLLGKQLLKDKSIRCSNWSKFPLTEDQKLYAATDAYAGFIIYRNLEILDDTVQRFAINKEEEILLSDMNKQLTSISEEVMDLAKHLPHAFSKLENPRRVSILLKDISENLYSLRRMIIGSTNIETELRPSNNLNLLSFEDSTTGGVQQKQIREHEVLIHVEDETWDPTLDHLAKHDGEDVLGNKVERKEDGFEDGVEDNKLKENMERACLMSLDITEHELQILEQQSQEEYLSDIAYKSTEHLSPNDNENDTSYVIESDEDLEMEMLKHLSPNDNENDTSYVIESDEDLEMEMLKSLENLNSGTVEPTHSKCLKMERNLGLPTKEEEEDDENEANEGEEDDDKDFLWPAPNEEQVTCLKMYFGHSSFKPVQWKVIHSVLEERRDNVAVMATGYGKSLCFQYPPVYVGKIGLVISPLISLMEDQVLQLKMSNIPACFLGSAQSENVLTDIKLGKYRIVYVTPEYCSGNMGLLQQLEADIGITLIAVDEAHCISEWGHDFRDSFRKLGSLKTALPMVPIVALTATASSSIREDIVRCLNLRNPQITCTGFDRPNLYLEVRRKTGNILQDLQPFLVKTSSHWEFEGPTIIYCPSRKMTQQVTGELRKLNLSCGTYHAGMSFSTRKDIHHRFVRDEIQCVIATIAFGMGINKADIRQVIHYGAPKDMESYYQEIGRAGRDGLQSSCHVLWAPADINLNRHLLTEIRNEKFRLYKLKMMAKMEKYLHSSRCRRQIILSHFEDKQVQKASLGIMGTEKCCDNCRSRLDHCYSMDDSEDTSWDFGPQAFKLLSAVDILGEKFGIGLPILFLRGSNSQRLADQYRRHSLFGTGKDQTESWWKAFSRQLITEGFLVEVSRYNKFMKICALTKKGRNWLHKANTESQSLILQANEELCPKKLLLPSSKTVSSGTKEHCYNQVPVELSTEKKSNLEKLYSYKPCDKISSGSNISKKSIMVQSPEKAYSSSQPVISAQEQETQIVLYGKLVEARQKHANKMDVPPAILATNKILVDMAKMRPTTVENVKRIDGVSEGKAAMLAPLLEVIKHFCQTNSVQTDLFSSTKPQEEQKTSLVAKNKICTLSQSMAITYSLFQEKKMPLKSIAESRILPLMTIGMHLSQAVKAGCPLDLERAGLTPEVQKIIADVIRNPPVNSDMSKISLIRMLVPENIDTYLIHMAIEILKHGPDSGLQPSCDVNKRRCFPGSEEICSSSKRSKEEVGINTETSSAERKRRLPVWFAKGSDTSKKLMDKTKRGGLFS

Holding throughout (experiment): EMSA
For orientation: In EMSA bound probe runs differently from free probe, usually more slowly.

One data set has as its target BLM (UniProt P54132). The settings on record: ATPgS, marginal, EMSA: 40 mM Tris-HCl pH 8.0, 4 mM MgCl2, 5 mM DTT, 1 mM ATPgS, 0.1 ug BSA in 10 ul, 4 C, 20 min, +10 mM KCl for quadruplexes, 4% gel, 0.5x Tris-glycine pH 8.3, recombinant protein, residues 1-1417, protein details: C-terminal FLAG.
Data set [1] has as its target WRN exonuclease-minus (human) (UniProt Q14191). The settings on record: similar to wild type; EMSA: 40 mM Tris-HCl pH 8.0, 4 mM MgCl2, 5 mM DTT, 1 mM ATPgS, 0.1 ug BSA in 10 ul, 4 C, 20 min; +10 mM KCl for quadruplexes; 4% gel, 0.5x Tris-glycine pH 8.3; recombinant protein; label: 5'-32P; folded or branched DNA.
For a further data set, the target named is WRN (human) (UniProt Q14191). The note with it: ATPgS, EMSA: 40 mM Tris-HCl pH 8.0, 4 mM MgCl2, 5 mM DTT, 1 mM ATPgS, 0.1 ug BSA in 10 ul, 4 C, 20 min, +10 mM KCl for quadruplexes, 4% gel, 0.5x Tris-glycine pH 8.3, recombinant protein, residues 1-1432, protein details: His6, label: 5'-32P.

For some assays here: Weaker means in comparison with the reference protein, sequence or condition of that experiment. For some assays here: For at least one entry, the source does not settle the construct or the ends of the probe. For some assays here: Whether high values mean tight binding is not given here for every scale.

“CGCGCCGAATTCCCGCTAGCAATATTCTGCAGCCAAGCTTCCGCGC / GGCGAACTGCCATTCGCACTTACACTGCTAGCGGGAATTCGGCGCG [Splayed arm DNA]”: in the data set with BLM (no significant complex with excess DNA, label: 5'-32P on strand …), the binding result is reported as “binds more weakly”.
With “GCGCGGAAGCTTGGCTGCAGAATATTGCTAGCGGGAATTCGGCGCG / CGCGCCGAATTCCCGCTAGTGGCGCCTTGCAGCCAAGCTTCCGCGC [Bubble DNA]”, the binding result with BLM (Kd not determinable, label: 5'-32P on strand …) is given as “binds more weakly”.
Take “GGTTAGGGTTAGGGTTAGGGTTAGGGTTAGTTAGGGTTAGGGT [G'2 TeR43 quadruplex]”: the binding result is recorded as “binds more weakly” in the data set with BLM (10 mM KCl, no significant complex with excess DNA, label: 5'-32P, folded or branched DNA) and “binds” in data set [1].
As for “GGTTAGGGTTAGGGTTAGGGTTAGGGTTAGTTAGGGTTAGGGT [G'4 TeR43 quadruplex]”, the binding result in the data set with BLM (10 mM KCl, label: 5'-32P, folded or branched DNA) is “binds more weakly”. In addition, the binding signal (DNA:WRN stoichiometry at saturation) with WRN (human) (10 mM KCl, folded or branched DNA) was found to be 0.05.
“GGTTAGGGTTAGGGTTAGGGTTAGGGTTAGTTAGGGTTAGGGT [single-stranded TeR43]”: in the data set with BLM (label: 5'-32P, single-stranded DNA), the binding result is “binds more weakly”. For the same sequence, the binding signal (DNA:WRN stoichiometry at saturation) with WRN (human) (single-stranded DNA) was 0.05.
